US20240382629A1, “HETEROBIVALENT AND HOMOBIVALENT AGENTS TARGETING FIBROBLAST ACTIVATION PROTEIN ALPHA AND/OR PROSTATE-SPECIFIC MEMBRANE ANTIGEN” (The Johns Hopkins University, priority 2021, published 2024)
At least one compound was matched to its structure with a doubt left.

What was measured:
[1] = test system: U87, SK-MEL-24, PSMA+/PSMA− PC3 PIP/flu, PSMA+/PSMA− 786-O cells; assay: Cell uptake and blocking of ^64Cu-FP-L1; type: cell-based, human; settings: co-incubation with FAPI-04 (FAP blockade) or ZJ43 (PSMA blockade)
[2] = test system: KPC mouse pancreatic lesions (PDAC); assay: PET and ex vivo NIRF imaging in KPC genetically engineered mouse model of pancreatic cancer; settings: 2 h post-injection

SMILES: N#C[C@@H]1CCCN1C(=O)CNC(=O)c1ccnc2ccc(OCCCNC(=O)CCc3cn(CCOCCOCCOCCC(=O)N[C@@H](CCCCNC(=O)CN4CCN(CC(=O)O)CCN(CC(=O)O)CC4)C(=O)NCCCCC(=O)N(CCCC[C@H](NC(=O)N[C@@H](CCC(=O)O)C(=O)O)C(=O)O)Cc4ccc(Br)cc4)nn3)cc12 [^64Cu-FP-L1, metal not drawn]
- Cell uptake in blocking studies [1]: significant (P<0.001) lowering of uptake
- PET uptake in KPC mice vs healthy mouse [2]: higher uptake in the abdominal area in the KPC mice than the healthy mouse
